Laboratory results: PMC6382874, “Succinylation-dependent mitochondrial translocation of PKM2 promotes cell survival in response to nutritional stress” (Cell Death & Disease, 2019)
Results are given in words; binding and its absence hold for the method and conditions named. In cells and extracts the contact can be indirect. Some binding calls cover weakened binding; strength is not graded here. Sequences can lack the tags named with a protein.

Protein sequences, listed by entry. Tags and fused reporters are not part of them.
UniProt P14618: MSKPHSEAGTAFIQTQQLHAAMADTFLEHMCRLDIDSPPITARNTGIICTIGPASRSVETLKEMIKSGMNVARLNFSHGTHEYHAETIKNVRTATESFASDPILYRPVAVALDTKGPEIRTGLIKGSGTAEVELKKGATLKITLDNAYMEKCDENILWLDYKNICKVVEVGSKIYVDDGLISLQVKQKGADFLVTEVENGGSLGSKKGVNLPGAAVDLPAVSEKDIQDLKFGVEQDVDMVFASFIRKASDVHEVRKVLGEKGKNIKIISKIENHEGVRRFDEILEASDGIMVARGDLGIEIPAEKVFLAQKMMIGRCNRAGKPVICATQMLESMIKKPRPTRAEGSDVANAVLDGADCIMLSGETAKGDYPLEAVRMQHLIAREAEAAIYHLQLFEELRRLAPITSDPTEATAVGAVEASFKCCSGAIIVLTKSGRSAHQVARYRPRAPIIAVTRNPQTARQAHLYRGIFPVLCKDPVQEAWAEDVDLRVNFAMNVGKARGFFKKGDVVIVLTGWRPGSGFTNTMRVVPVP

Key:
[1] = biological target: T1, VDAC3 (partner of HA-PKM2 in the S-tag pull-down of Fig. 6b) (human) (UniProt Q9Y277); assay: condition: only after 8 h 20 µM compound 8 treatment of the cells; pull-down; as a6, cells treated with 20 µM compound 8 for 8 h before harvest
T1 sequence: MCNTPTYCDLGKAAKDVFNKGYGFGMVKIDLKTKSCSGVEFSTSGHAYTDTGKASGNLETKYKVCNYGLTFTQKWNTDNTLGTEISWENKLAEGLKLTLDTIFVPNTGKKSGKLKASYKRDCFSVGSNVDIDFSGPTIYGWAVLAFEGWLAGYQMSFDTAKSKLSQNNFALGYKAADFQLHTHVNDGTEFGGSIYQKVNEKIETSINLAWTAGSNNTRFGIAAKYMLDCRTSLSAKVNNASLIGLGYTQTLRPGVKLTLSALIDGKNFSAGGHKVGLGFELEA

[2] = biological target: T1, VDAC3 (partner of HA-PKM2 in the S-tag pull-down of Fig. 6b) (human); assay: pull-down; S-protein agarose pull-down of the S-tagged partner from whole cellular extracts (RIPA buffer) of transfected HCT116 cells, 3 h at 4 °C, western blot; Fig. 2g with or without 8 h glucose starvation
[3] = biological target: T2, voltage-dependent anion channel 3 (VDAC3), endogenous (human (endogenous in HCT116)) (UniProt Q9Y277); assay: co-IP; endogenous proteins; HCT116 whole cellular extracts in RIPA buffer, immunoprecipitation with anti-VDAC3 antibody or control IgG, protein A/G agarose, 4 °C, western blot; also in a second cancer cell line
T2 sequence: T1 sequence

| binding [1] | binding [2] | binding [3] | Substance |
| --- | --- | --- | --- |
| no binding | binds |  | HA-tagged PKM2 (from UniProt P14618 1-531) (enzyme) |
|  |  | binds | PKM2, endogenous (from UniProt P14618 1-531) (enzyme) |
